The other results are listed elsewhere or left out.
What follows are compounds tested on T1, CTL2-GFP (C. trachomatis L2/434/Bu, GFP-expressing). Settings: bulk GFP, single well; 28.5 h, 10 µM; inhibitor.
T1 construct: L2/434/Bu, GFP-expressing
Set-up: species or system HeLa; Intracellular C. trachomatis growth in HeLa cells, bulk GFP fluorescence relative to DMSO

SMILES	% of control remaining
COCc1cn(C[C@H]2CC3CCN2C[C@@H]3C(=O)NC2CC2)nn1 (stereo partly drawn) [CBK288835]	124.023%
CCCn1c(NC(=O)C(C)Oc2ccc(Cl)cc2Cl)nc2ccccc21 (stereo not drawn) [CBK296979]	36.2331%
Cn1nc(C(=O)NCC2(c3cccc(F)c3)CCCC2)ccc1=O [CBK281437]	125.374%
CC(=O)Nc1cccc(-c2cncc(NCCc3c[nH]c4ccccc34)n2)c1 [CBK037820]	109.571%
O=C(c1ccco1)N1CCC[C@H]1[C@H](O)c1nc2ccccc2s1 [CBK284290]	101.889%
Cc1ccccc1-c1noc(CNC(Cn2ccnc2)C(C)C)n1 (stereo not drawn) [CBK307560]	112.562%
CCNC(=O)C1(NC(=O)Cc2cn3cccc(C)c3n2)CCCCC1 [CBK304933]	100.038%
Cn1ncc2c1CCCN(C(=O)CCc1ccccc1F)C2 [CBK285255]	141.733%
O=C(Nc1cc(F)ccc1N1CCCC1)c1ccc(=O)n(CC(=O)N2CCCCC2)c1 [CBK286083]	119.542%
FC1(F)Oc2ccc(Nc3cncc(-c4cccs4)n3)cc2OC1(F)F [CBK065727]	153.653%
O=C(O)c1cccc(NS(=O)(=O)c2ccc(F)c(C(F)(F)F)c2)c1 [CBK155693]	102.516%
Cc1cc(NC(=O)CN2CC=C(c3ccc(C)o3)CC2)no1 [CBK283608]	98.7474%
C=Cn1ncc(CN2CCCC(O)(c3ccc(F)cc3)CC2)c1C (stereo not drawn) [CBK284837]	139.658%
CC(C)CCN(Cc1ccc(-c2ccc(S(C)(=O)=O)cc2)nc1)C1CCN(C(=O)OC(C)(C)C)CC1 [CBK165138]	145.833%
COc1cccc(CN2CCCC(c3nc(C)n4ccccc34)C2)c1 (stereo not drawn) [CBK282989]	148.951%
COc1ccc(C)cc1S(=O)(=O)N(C)CC(=O)Nc1cccc(SC)c1 [CBK267510]	104.987%
c1ccc2c(c1)CSCC2Oc1cncc(N2CCNCC2)n1 (stereo not drawn) [CBK172356T]	108.537%
Cc1ccc(/C(N)=N/OC(=O)CN(C)S(=O)(=O)c2ccc3ccccc3c2)cc1 [CBK267363]	152.265%
Cn1nccc1CCNS(=O)(=O)c1cccc(C(=O)N2CCCCC2)c1 [CBK307086]	122.744%
Cc1csc2c(NC(C)C)ncnc12 [CBK017059]	144.326%
NC(=O)CN1CC2(CCN(CCc3c[nH]c4ccccc34)CC2)c2ccccc21 [CBK126784]	98.0718%
COc1ccc2[nH]c3c(c2c1)CCNC31CCN(Cc2cc(F)cc(F)c2)C1 (stereo not drawn) [CBK039368]	88.3185%
Cn1c(=O)oc2ccc(C(=O)NCCN3CCCCC3CO)cc21 (stereo not drawn) [CBK307594]	161.52%
O=C1NCCNC(=O)C2(CCCCOc3ccccc31)CCN(C(=O)c1ccnnc1)CC2 [CBK292105]	163.926%
Cc1cc(C(=O)Nc2cccc(S(=O)(=O)N3CCOCC3)c2)sc1-c1ccccc1 [CBK268185]	27.6951%
Cc1cc(C(=O)N2CCC(c3nccn3C)CC2)ccc1F [CBK304355]	141.877%

SMILES	% of control remaining
CCc1c(S(=O)(=O)CCC(=O)OC)c2ccccc2[n+]([O-])c1C [CBK155469T]	105.211%
CCOc1ccccc1N1C(=O)CC(Sc2nc(-c3ccccc3)c3cc(Cl)ccc3n2)C1=O (stereo not drawn) [CBK265405]	91.4945%
O=C(N/N=C/c1ccc(O)cc1)C(=O)N/N=C/c1ccc(O)cc1 [CBK261625]	100%
COc1ccccc1NC(=O)CN(c1ccc(Br)cc1)S(C)(=O)=O [CBK265254]	108.303%
O=[N+]([O-])c1ccccc1/C=C\C=N\n1c(S)nnc1-c1ccc(Cl)cc1Cl [CBK264405]	136.491%
COC(=O)c1ccc(S(=O)(=O)N2CCc3ccccc3C2)cc1 [CBK068696]	122.967%
CN(C)S(=O)(=O)N(CC(=O)NCC1CCCO1)c1ccccc1 (stereo not drawn) [CBK268192]	101.548%
c1ccc2oc(-c3cncc(N4CCN(CCN5CCCC5)CC4)n3)cc2c1 [CBK066052]	138.429%
O=C1c2cccc3cccc(c23)C(=O)N1CC1CCN(CC(O)COCC2COc3ccccc3O2)CC1 (stereo not drawn) [CBK074412C]	130.774%
O=C(O)c1[nH]c2ccccc2c1NS(=O)(=O)c1cc(Cl)sc1Cl [CBK049886]	122.035%
Fc1ccc(NC(=S)NCC2CC2)c(F)c1 [CBK011398]	127.302%
O=C(Nc1ccc(OC(F)(F)F)cc1)c1cnc(-c2ccc(Cl)cc2)c(-c2ccco2)c1 [CBK037456]	82.2707%
COc1ccc(S(=O)(=O)Nc2nccc(-c3ccc(CN4C(=O)CCC4=O)cc3)n2)cc1 [CBK067438]	120.46%
Cn1cc(C(=O)N2CCc3nc(-c4cccc(F)c4)sc3C2)cn1 [CBK281910]	165.202%
CCN(CC)C(=O)c1cnoc1-c1ccc(Br)cc1 [CBK153725]	115.085%
Cc1cc(OCC(O)CN2CCN(CCO)CC2)cc(C)c1Cl (stereo not drawn) [CBK278248C]	91.247%
Cc1cccnc1NC(=O)c1ccc(NCCc2ccccc2)c([N+](=O)[O-])c1 [CBK269543]	132.086%
CCCCn1nccc1NC(=O)NC(C)c1n[nH]c(C)n1 (stereo not drawn) [CBK307486]	90.653%
CC1(CC(=O)Nc2ccccc2)NC(=S)N(c2ccccc2)N1 (stereo not drawn) [CBK265534]	117.444%
Cc1cc(C(=O)NCc2ccc(-c3csnn3)cc2)n[nH]1 [CBK149314]	110.592%
CCOC(=O)CN1CCN(c2nccnc2Oc2ccc(OC)c(OC)c2)CC1 [CBK083052T]	104.261%
O=C(CSc1nnc(-c2cccnc2)n1Cc1ccccc1)Nc1ccc(Br)cc1 [CBK267527]	125.551%
Cn1c(=O)n(C)c2cc(CNCc3ccc(C(=O)O)cc3)ccc21 [CBK286538]	113.332%
Cc1cc(C)c2nn[nH]c2c1CN1CCCC1 [CBK018196]	100.882%
CCc1c(C)sc(NC(=S)Nc2cnccn2)c1C(=O)OC [CBK267088]	117.812%
O=C(CC1S/C(=N/N=C/c2ccc(-c3ccc(Br)cc3)o2)NC1=O)Nc1ccccc1 (stereo not drawn) [CBK264499]	139.912%

SMILES	% of control remaining
Nc1ncc(-c2ccco2)nc1-c1ccc(F)c(Cl)c1 [CBK064013]	230.45%
O=C1Nc2cc(Cl)ccc2C(=O)N2CCN(C(=O)C3CCCCC3)C[C@H]12 [CBK289586]	122.687%
Cc1sc(-c2cccs2)nc1OC(=O)c1cccc(C(F)(F)F)c1 [CBK067748]	93.3085%
O=C(N[C@H]1CC[C@H](O)CC1)C1(Cc2cc(-c3ccc(F)cc3F)no2)CCOCC1 [CBK286352]	112.29%
Cn1c(CN2CCN(C3CCCCC3)C(=O)C2)nc2ccccc21 [CBK281893]	140.706%
O=C(CSCc1nc2ccccc2c(=O)n1-c1ccccc1Cl)Nc1ccccc1 [CBK070895]	103.174%
N=C(N)SCc1csc(-c2ccc(Br)cc2)n1 [CBK017064C]	19.1703%
Cc1cc(C)c2[nH]c(CC(=O)N(C)CCN(C)C)nc2c1 [CBK282727]	149.762%
CC(=O)Oc1ccc(C(=O)NCc2ccc3c(c2)OCO3)cc1 [CBK264372]	125.673%
CCN(CC)CCCNc1nc2ccc(O)cc2s1 [CBK023880C]	101.149%
O=C(Cc1c[nH]c2ccccc12)Nc1cccnc1N1CCNCC1 [CBK028265T]	126.616%
CC(CCCC(C)(C)O)Nc1cncc(-c2ccc(C(N)=O)cc2)n1 (stereo not drawn) [CBK066071]	131.988%
Cc1nc(CC(NC(=O)C(c2ccccc2)c2ccccc2)c2ccc(F)cc2)cc(=O)[nH]1 (stereo not drawn) [CBK285669]	122.702%
COc1ccc(C(=O)NCC(=O)Nc2ccc(N3CCCCC3)cc2)cc1OC [CBK295199]	132.834%
O=C(Nc1ccc(N2CCOCC2)c(Cl)c1)c1cccc(-n2cnnc2)c1 [CBK269853]	123.53%
COCC(=O)N1CCN(Cc2cccc(-c3ccccn3)c2)CC1 [CBK304035]	98.6661%
CCn1c(SCC(=O)NC2CCCCC2C)nnc1-c1cc2cccc(OC)c2o1 (stereo not drawn) [CBK267148]	202.813%
CC(=O)NC(CSc1cc(C)nc2ccc(F)cc12)C(=O)O (stereo not drawn) [CBK286815]	141.941%
CNC(=O)CN1C(=O)CC2(C1=O)C(=O)N(CCOC)c1ccc(OC)cc12 (stereo not drawn) [CBK075144]	100%
O=[N+]([O-])c1cccc(-c2cc(Nc3ccc4[nH]ccc4c3)ncn2)c1 [CBK090860]	205.927%
CCCCSc1nc(N)cc(N2CCC(N3CCCC3=O)CC2)n1 [CBK307525]	90.6456%
CCCC(=O)NC(NC(=S)Nc1ccccc1Cl)C(Cl)(Cl)Cl (stereo not drawn) [CBK261026]	81.0791%
C#CCNCc1ccc(O)cc1 [CBK013235C]	144.891%
Cc1ccc2c(c1)OC(C)(C)CC2NS(=O)(=O)N1CCN(C)CC1 (stereo not drawn) [CBK307271]	103.829%
N#CCc1ccc(OC(=O)c2cccnc2)cc1 [CBK090304]	88.0995%
O=S(=O)(c1ccc(C(F)(F)F)cc1Cl)N1CCN(Cc2cccc(Br)c2)CC1 [CBK063163]	113.642%

An excerpt from above in order of molecular weight, low to high:
SMILES	% of control remaining
CC(CCCC(C)(C)O)Nc1cncc(-c2ccc(C(N)=O)cc2)n1 (stereo not drawn) [CBK066071]	131.988%
Cc1sc(-c2cccs2)nc1OC(=O)c1cccc(C(F)(F)F)c1 [CBK067748]	93.3085%
O=C(Nc1ccc(N2CCOCC2)c(Cl)c1)c1cccc(-n2cnnc2)c1 [CBK269853]	123.53%
